Values quoted from earlier work as cited in PMC5955586, “Transport of enniatin B and enniatin B1 across the blood-brain barrier and hints for neurotoxic effects in cerebral cells” (PLoS ONE, 2018).

Tested on: PBCEC
Conditions: cited from earlier work

## CN1C(=O)CN=C(c2ccccc2)c2cc(Cl)ccc21 [diazepam]
  Papp: 127 nm/s
